From PubChem BioAssay AID328 (DTP/NCI, 2004)
The list is a part of this screen's results and no random one: it gathers tests that were run many times, whatever their T/C, doses with no T/C, and many T/C values between a quarter and a half above the control. Further doses and runs are listed elsewhere. T/C gives the treated animals as a percentage of the vehicle group. Some doses have a count of surviving animals in place of a T/C: the source holds a T/C of zero for them, seemingly a mark for toxic or unscored doses. Some doses without a T/C left all or most animals alive at the check, yet need not have been tolerated: survival well below the control is almost never listed, so the zero probably covers shortened survival too. Survivors were counted at the toxicity check, usually on the fifth day, unless a day is given; later deaths do not show. Schedules are NCI's codes, read here as Q, the interval in days (D) or hours (H), X, the number of doses. Some doses were run more than once; the values are given in rising order. For survival time, the PubChem record calls one and a half times the control and up active, and a quarter to a half above the control has no call in these data; cut-offs in other NCI protocols can differ. Some T/C values are followed by the survivors on the day toxicity was checked, most often the fifth; without a count, all were alive then.

Tested on: BDF1 mice, P388 leukemia ip, median survival T/C
Assay: NCI In Vivo Anticancer Drug Screen. Data for tumor model P388 Leukemia (intraperitoneal) in B6D2F1 (BDF1) mice
Details: T/C endpoint: median survival time, higher T/C = longer survival
Summary of the method: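 Antitumour effect was judged in vivo: survival in drug-treated mice, normalised to that of vehicle-dosed controls, gives the reported T/C.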

[1] = dose: 3.12 mg/kg/injection, schedule: Q01DX009 (ip), vehicle: saline
[2] = dose: 12.5 mg/kg/injection, schedule: Q01DX009 (ip), vehicle: saline
[3] = dose: 25.0 mg/kg/injection, schedule: Q01DX009 (ip), vehicle: saline
[4] = dose: 50.0 mg/kg/injection, schedule: Q01DX009 (ip), vehicle: saline
[5] = dose: 100.0 mg/kg/injection, schedule: Q01DX009 (ip), vehicle: saline
[6] = dose: 100.0 mg/kg/injection, schedule: Q04DX003 (ip), vehicle: saline
[7] = dose: 100.0 mg/kg/injection, schedule: Q01DX009 (ip), vehicle: water
[8] = dose: 100.0 mg/kg/injection, schedule: Q01DX009 (ip), vehicle: saline with Tween-80
[9] = dose: 50.0 mg/kg/injection, schedule: Q01DX009 (ip), vehicle: saline with Tween-80
[10] = dose: 200.0 mg/kg/injection, schedule: Q01DX009 (ip), vehicle: saline with Tween-80
[11] = dose: 100.0 mg/kg/injection, schedule: Q01DX009 (ip), vehicle: other
[12] = dose: 100.0 mg/kg/injection, schedule: Q01DX009 (ip), vehicle: Klucel (hydroxypropylcellulose) (HPC)
[13] = dose: 400.0 mg/kg/injection, schedule: Q01DX009 (ip), vehicle: Klucel (hydroxypropylcellulose) (HPC)
[14] = dose: 200.0 mg/kg/injection, schedule: Q04DX003 (ip), vehicle: saline
[15] = dose: 400.0 mg/kg/injection, schedule: Q04DX003 (ip), vehicle: saline
[16] = dose: 12.5 mg/kg/injection, schedule: Q01DX009 (ip), vehicle: saline with Tween-80

`OCCOCCN1CCN(CCCN2c3ccccc3Sc3ccc(C(F)(F)F)cc32)CC1` was tested, and the survivor count [1] was 6 of 6, the survivor count (dose: 6.25 mg/kg/injection, schedule: Q01DX009 (ip), vehicle: saline) was 6 of 6 and the survivor count [2] was 4 of 7. For the same compound, the survivor count [3] was 2 of 7, the T/C (dose: 25.0 mg/kg/injection, schedule: Q04DX003 (ip), vehicle: saline) was 126 % of control and the survivor count [4] was 0 of 7. For the same compound, the T/C (dose: 50.0 mg/kg/injection, schedule: Q04DX003 (ip), vehicle: saline) was 129 and 145 % of control, the survivor count [5] was 0 of 7 and the survivor count [6] was 3 of 6 and 4 of 6.
For `O=P1(NCCCl)OCCCN1CCCl` (configuration not stated), the T/C [2] was 131 % of control, the T/C [4] was 129 % of control and the T/C [7] was 139 % of control. For the same compound, the survivor count (dose: 400.0 mg/kg/injection, schedule: Q01DX009 (ip), vehicle: water) was 4 of 10.
`C[n+]1ccc2cc(-c3ccccc3)c3ccccc3c2c1` was tested, and the T/C (dose: 8.0 mg/kg/injection, schedule: Q01DX009 (ip), vehicle: water) was 131 % of control.
With `O=[N+]([O-])c1ccc(N2CCN(Cc3ccccc3)CC2)c2c1no[n+]2[O-]` the T/C (dose: 150.0 mg/kg/injection, schedule: Q04DX003 (ip), vehicle: saline with Tween-80) was 131 % of control.
In the case of `Cc1c(Cl)cccc1NC(=O)/C=C/C(=O)O`, the T/C [8] is reported as 131 % of control.
In the case of `CC/C(=C(\CC)c1ccc(OCCN(CC)CC)cc1)c1ccc(OCCN(CC)CC)cc1`, the survivor count (dose: 50.0 mg/kg/injection, schedule: Q01DX010 (ip), vehicle: carboxymethylcellulose (CMC)) is reported as 0 of 6 and the survivor count (dose: 100.0 mg/kg/injection, schedule: Q01DX010 (ip), vehicle: carboxymethylcellulose (CMC)) is reported as 0 of 6.
`CCCCCC#CC1OC1(C)C` (configuration not stated) was tested, and the T/C [9] was 130 % of control and the survivor count [10] was 4 of 6.
`O=[N+]([O-])c1ccc(/C=C2\c3ccccc3-c3nc4ccccc4nc32)cc1` was tested, and the survivor count (dose: 75.0 mg/kg/injection, schedule: Q01DX001 (ip), vehicle: other) was 6 of 6.
In the case of `O=CN(O)CC(=O)O.[Zn]`, the T/C (dose: 8.5 mg/kg/injection, schedule: Q04DX003 (ip), vehicle: saline) is reported as 140 % of control, the T/C (dose: 9.37 mg/kg/injection, schedule: Q01DX009 (ip), vehicle: saline) is reported as 127 % of control and the survivor count [2] is reported as 1 of 6. The T/C (dose: 13.0 mg/kg/injection, schedule: Q04DX003 (ip), vehicle: saline) was 136 % of control, the survivor count (dose: 19.0 mg/kg/injection, schedule: Q04DX003 (ip), vehicle: saline) was 4 of 6 and the T/C (dose: 21.0 mg/kg/injection, schedule: Q04DX003 (ip), vehicle: saline) was 127 % of control. The survivor count [3] was 2 of 6.
In the case of `CC1CN1CCS(=O)(=O)CCN1CC1C` (configuration not stated), the T/C [11] is reported as 136 % of control.
In the case of `CC(C(=O)O)N(CC(=O)O)CC(=O)O.[Co+2].[NH-]CC(=O)O` (configuration not stated), the survivor count [7] is reported as 3 of 6, the survivor count (dose: 200.0 mg/kg/injection, schedule: Q01DX009 (ip), vehicle: water) is reported as 0 of 6 and the survivor count (dose: 200.0 mg/kg/injection, schedule: Q04DX003 (ip), vehicle: water) is reported as 5 of 6. The survivor count (dose: 400.0 mg/kg/injection, schedule: Q04DX003 (ip), vehicle: water) was 3 of 6.
For `[Cl][Hg][CH]1CCCC2OC(C(Cl)(Cl)Cl)OC21` (configuration not stated), the survivor count (dose: 1.56 mg/kg/injection, schedule: Q01DX001 (ip), vehicle: saline with Tween-80) was 4 of 6 and the survivor count (dose: 3.13 mg/kg/injection, schedule: Q01DX001 (ip), vehicle: saline with Tween-80) was 2 of 6.
In the case of `NC(=O)c1cn[nH]c1N`, the survivor count [12] is reported as 6 of 6, the survivor count (dose: 200.0 mg/kg/injection, schedule: Q01DX009 (ip), vehicle: Klucel (hydroxypropylcellulose) (HPC)) is reported as 6 of 6 and the survivor count [13] is reported as 6 of 6.
With `CSC1C(=O)Nc2ccc(Cl)cc21` (configuration not stated) the survivor count (dose: 600.0 mg/kg/injection, schedule: Q04DX003 (ip), vehicle: saline with Tween-80) was 2 of 6.
`CCC(=O)O[C@H]1CC[C@H]2[C@@H]3CC(=C(Br)Br)C4=CC(=O)CC[C@]4(C)[C@H]3CC[C@]12C` was tested, and the survivor count [8] was 6 of 6 and the survivor count [10] was 6 of 6.
`COc1cc(C(C)O)cc(OC)c1OC` (configuration not stated) was tested, and the survivor count (dose: 400.0 mg/kg/injection, schedule: Q01DX009 (ip), vehicle: saline with Tween-80) was 6 of 6.
`N=c1c(C(N)=O)cnc2n1CCCCC2` was tested, and the survivor count [14] was 5 of 6 and the survivor count [15] was 0 of 6.
`c1ccc(-c2cc3c(N4CCOCC4)nnc(N4CCOCC4)c3cn2)cc1` was tested, and the survivor count [10] was 6 of 6.
For `N=c1c2ccccc2nc2n1CCCCC2`, the survivor count [6] was 3 of 6, the survivor count [14] was 4 of 6 and the survivor count [15] was 0 of 6.
`OCCOCCOCCN1CCN(CCCN2c3ccccc3Sc3ccc(C(F)(F)F)cc32)CC1` was tested, and the survivor count (dose: 1.57 mg/kg/injection, schedule: Q01DX009 (ip), vehicle: saline) was 4 of 6, the survivor count [1] was 5 of 6 and the survivor count [2] was 1 of 6. The survivor count [3] was 4 of 6, the survivor count [4] was 1 of 6 and the survivor count [5] was 0 of 6.
`COc1cccc(/C=C/C(=O)c2ccc(Cl)cc2)c1OC` was tested, and the survivor count [10] was 6 of 6.
In the case of `Cc1ccc(N2C=Nc3ccc(C)cc3C2)cc1`, the T/C (dose: 25.0 mg/kg/injection, schedule: Q01DX009 (ip), vehicle: Klucel (hydroxypropylcellulose) (HPC)) is reported as 127 % of control, the survivor count [13] is reported as 0 of 6 and the survivor count (dose: 400.0 mg/kg/injection, schedule: Q04DX003 (ip), vehicle: other) is reported as 2 of 6.
`O=S(=O)(O)CCN(CCO)CCO` was tested, and the survivor count (dose: 200.0 mg/kg/injection, schedule: Q01DX009 (ip), vehicle: saline) was 6 of 6.
In the case of `COC1OC(C)C(O)C(O)[CH]1[Hg][O]C(C)=O` (configuration not stated), the survivor count (dose: 3.0 mg/kg/injection, schedule: Q01DX009 (ip), vehicle: saline) is reported as 5 of 6, the survivor count (dose: 6.0 mg/kg/injection, schedule: Q01DX009 (ip), vehicle: saline) is reported as 5 of 6 and the survivor count (dose: 12.0 mg/kg/injection, schedule: Q01DX009 (ip), vehicle: saline) is reported as 3 of 6.
`COc1cc(Br)cc(/C=C/[N+](=O)[O-])c1OC` was tested, and the T/C [16] was 141 % of control, the T/C (dose: 25.0 mg/kg/injection, schedule: Q01DX009 (ip), vehicle: saline with Tween-80) was 148 % of control [5 of 6 alive] and the survivor count [9] was 4 of 6 and 5 of 6.
For `O=C1CC2(C(=O)N1CN1CCN(c3ccc(F)cc3)CC1)c1ccccc1-c1ccccc12` (tested in a mixture with another compound), the T/C (dose: 50.0 mg/kg/injection, schedule: Q04DX003 (ip), vehicle: saline with Tween-80) was 135 % of control, the T/C (dose: 100.0 mg/kg/injection, schedule: Q04DX003 (ip), vehicle: saline with Tween-80) was 146 % of control [5 of 6 alive] and the survivor count (dose: 200.0 mg/kg/injection, schedule: Q04DX003 (ip), vehicle: saline with Tween-80) was 2 of 6 and 3 of 6.
For `CCCCC(=O)c1cc(OC)cc(OC)c1`, the survivor count [12] was 6 of 6.
`CCOC1=Cc2c(oc3c(C(C)(C)C)cc(OCC)cc23)OC(C(C)(C)C)=C1` was tested, and the T/C [16] was 142 % of control, the survivor count [9] was 5 of 6 and the survivor count [8] was 1 of 6. For the same compound, the survivor count [10] was 0 of 6.
For `COc1ccc(C=C2C(=O)N(C)C(=O)N(C)C2=O)cc1`, the T/C [11] was 128 % of control and the T/C (dose: 200.0 mg/kg/injection, schedule: Q01DX009 (ip), vehicle: other) was 135 % of control.
In the case of `CC(=O)Nc1nc(Cl)c([N+](=O)[O-])c(SCc2ccccc2)n1`, the survivor count [10] is reported as 2 of 6 and the survivor count (dose: 400.0 mg/kg/injection, schedule: Q04DX003 (ip), vehicle: saline with Tween-80) is reported as 0 of 6.
